Results on one molecule are retold here after paper PMC12669712.

Results are given in words; binding and its absence hold for the method and conditions named. Binding seen in cells or lysates may run through a third protein. For some of these results: A result given as binding can be weak or reduced; the word gives no strength.

Common to all, as to assay: pull-down; TNT-made KSR1 incubated with glutathione-Sepharose beads coated with the GST protein for 3 h at 4 °C in Buffer A (150 mM NaCl, 50 mM Tris-HCl, pH 7.4, 1% Triton X-100); five washes; Western blot with anti-KSR1 and anti-GST; only the target purified
For orientation: A western blot detects proteins with antibodies after separation by electrophoresis.

The target of assay [1] is GST-tagged YAP fragment C (aa 228-454).
The target of assay [2] is GST-tagged YAP fragment M (aa 115-341).
Assay [3] deals with GST-tagged YAP fragment N (amino acids 2-227).
In assay [4] the target is GST-tagged YAP, full-length (F).

B1: Kinase Suppressor of Ras 1 (KSR1), produced by in vitro transcription and translation (TNT) (protein, UniProt Q8IVT5 1-923)
chain: MDRAALRAAAMGEKKEGGGGGDAAAAEGGAGAAASRALQQCGQLQKLIDISIGSLRGLRTKCAVSNDLTQQEIRTLEAKLVRYICKQRQCKLSVAPGERTPELNSYPRFSDWLYTFNVRPEVVQEIPRDLTLDALLEMNEAKVKETLRRCGASGDECGRLQYALTCLRKVTGLGGEHKEDSSWSSLDARRESGSGPSTDTLSAASLPWPPGSSQLGRAGNSAQGPRSISVSALPASDSPTPSFSEGLSDTCIPLHASGRLTPRALHSFITPPTTPQLRRHTKLKPPRTPPPPSRKVFQLLPSFPTLTRSKSHESQLGNRIDDVSSMRFDLSHGSPQMVRRDIGLSVTHRFSTKSWLSQVCHVCQKSMIFGVKCKHCRLKCHNKCTKEAPACRISFLPLTRLRRTESVPSDINNPVDRAAEPHFGTLPKALTKKEHPPAMNHLDSSSNPSSTTSSTPSSPAPFPTSSNPSSATTPPNPSPGQRDSRFNFPAAYFIHHRQQFIFPVPSAGHCWKCLLIAESLKENAFNISAFAHAAPLPEAADGTRLDDQPKADVLEAHEAEAEEPEAGKSEAEDDEDEVDDLPSSRRPWRGPISRKASQTSVYLQEWDIPFEQVELGEPIGQGRWGRVHRGRWHGEVAIRLLEMDGHNQDHLKLFKKEVMNYRQTRHENVVLFMGACMNPPHLAIITSFCKGRTLHSFVRDPKTSLDINKTRQIAQEIIKGMGYLHAKGIVHKDLKSKNVFYDNGKVVITDFGLFGISGVVREGRRENQLKLSHDWLCYLAPEIVREMTPGKDEDQLPFSKAADVYAFGTVWYELQARDWPLKNQAAEASIWQIGSGEGMKRVLTSVSLGKEVSEILSACWAFDLQERPSFSLLMDMLEKLPKLNRRLSHPGHFWKSADINSSKVVPRFERFGLGVLESSNPKM
Regarding B1, the binding entry in assay [1] was “no binding”; in assay [2], “no binding”; in assay [3], “binds”; in assay [4] it was “binds”.
